Test results published in PubChem BioAssay AID504834 (National Center for Advancing Translational Sciences (NCATS), 2011).
Among all 320,000 compounds or so, about 22,000 (6.9%) were called active. Inconclusive results, whose numbers are uncertain, are shown with a selection of clear calls. Calls come from the whole dose curve; as a rule, active = well fitted inhibition curve with a large enough effect; inconclusive = small, poorly fitted or top-dose-only effect, or another doubt; inactive = no such curve, though single readings can be large or run the other way. Where the call is inconclusive, the potency comes from a doubtful curve fit.

Assay: Primary qHTS for delayed death inhibitors of the malarial parasite plastid, 96 hour incubation
Details: P. falciparum luciferase reporter growth; series mostly up to 28.7 µM
Procedure, shortened: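 Compounds incubated with erythrocytes infected by luciferase-expressing P. falciparum (2% hematocrit, 0.05% parasitemia final) for 96 hours, 37 C in 5% CO2. Growth inhibition scored as decreased luciferase luminescence.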
Potency is the fitted concentration of half-maximal effect.

Row | Compound | Potency
1 | CC1CCCC(C)N1C(=O)c1cc2ncc(CCCl)cn2n1 (stereo unspecified) | inconclusive: 9.28 µM [inhibitor, single point]
2 | O=C(c1cnn2c(C(F)(F)F)cc(-c3ccccc3)nc12)N1CCC2(CC1)OCCO2 | active: 14.7 µM
3 | CCN(c1ccccc1C(=O)O)S(=O)(=O)c1cccc2nsnc12 | inactive
4 | Cc1ccccc1OCC(=O)N/N=C/C=C/c1ccccc1 | inconclusive: 10.4 µM [inhibitor, single point]
5 | Cc1ccc(S(=O)(=O)N2CCN(C(=O)CSc3nc4ccccc4c(=O)[nH]3)CC2)cc1 | inconclusive: 18.5 µM [inhibitor, single point]
6 | Cc1nc2c(C(=O)Nc3ccc(N4CCCC(O)C4)cc3)snc2c(=O)[nH]1 (stereo unspecified) | inconclusive: 2.94 µM [inhibitor, partial curve, poor fit]
7 | O=C(CSc1nc2ccccc2o1)N1c2ccccc2Sc2ccccc21 | inactive
8 | Cc1ccc(Nc2nnc(SCC(=O)NCCN3C(=O)CSC3=O)s2)cc1C | inconclusive: 3.7 µM [inhibitor, full curve, poor fit]
9 | CCC(C)NC(=O)CC(c1ccccc1)c1cc(C)ccc1O (stereo unspecified) | inactive
10 | CN1CCc2c(sc3c2C(=O)NC(c2cccc(OC(=O)c4cccs4)c2)N3)C1 (stereo unspecified) | inconclusive: 0.147 µM [inhibitor, full curve, poor fit]
11 | CCCC(=O)N(C)c1nnc(-c2ccc(OC)cc2)s1 | active: 10.4 µM
12 | COc1ccc(S(=O)(=O)N2CCC(Nc3ccccc3Cl)CC2)cc1 | inconclusive: 10.4 µM [inhibitor, partial curve]
13 | O=C1CCN(CCc2ccccc2)CCN1[C@H](CSc1ccccc1)c1ccccc1 | inconclusive: 8.28 µM [inhibitor, partial curve]
14 | Cc1ccc(CNC(=O)c2cc3c(=O)n4ccccc4nc3n(CC3CCCO3)c2=N)cc1 (stereo unspecified) | inconclusive: 2.33 µM [inhibitor, full curve]
15 | Nc1cnccc1C(=O)O | inactive
16 | OCC1(CCc2ccccc2)CCN(Cc2cc(F)ccc2-n2cccn2)CC1 | inactive
17 | Cc1cc(NC(c2cccnc2)c2ccc3cccnc3c2O)no1 (stereo unspecified) | active: 4.15 µM
18 | CCCC[N+]12CCC(CC1)C(C(=O)c1cccs1)C2 (stereo unspecified) | active: 2.62 µM
19 | O=C1N=C(N2CCCC2)S/C1=C\c1ccccc1 | inconclusive: 9.28 µM [inhibitor, partial curve, poor fit]
20 | Cc1ccccc1C1NC(=S)NC2=C1C(=O)CC(C)(C)C2 (stereo unspecified) | inconclusive: 11.7 µM [inhibitor, partial curve, poor fit]
21 | COc1ccc(-c2nnc(SCC(=O)NCC3CCCO3)n2C)cc1 (stereo unspecified) | inconclusive: 14.7 µM [inhibitor, single point]
22 | Cc1ccc(S(=O)(=O)N2CCc3cc4c(cc3C2C)OCCCO4)cc1 (stereo unspecified) | inconclusive: 8.28 µM [inhibitor, single point]
23 | CC(=O)c1ccc(N2CCN(S(=O)(=O)c3ccccc3)CC2)c(F)c1 | inconclusive: 9.28 µM [inhibitor, single point]

Looked up one by one from the entries so far (2):
Row | Compound | Potency
14 | Cc1ccc(CNC(=O)c2cc3c(=O)n4ccccc4nc3n(CC3CCCO3)c2=N)cc1 (stereo unspecified) | inconclusive: 2.33 µM [inhibitor, full curve]
17 | Cc1cc(NC(c2cccnc2)c2ccc3cccnc3c2O)no1 (stereo unspecified) | active: 4.15 µM

The list continues:

Row | Compound | Potency
24 | CCCN1CCC(=O)N([C@H](CSc2ccc(Br)cc2)Cc2ccccc2)CC1 | active: 1.85 µM
25 | COc1ccc(C(=O)COC(=O)CCCC(=O)NC2CCCCC2)cc1 | inconclusive: 6.57 µM [inhibitor, partial curve]
26 | O=C(CN(Cc1ccccc1Cl)C(=O)CNS(=O)(=O)c1ccccc1)NCC1CCCO1 (stereo unspecified) | inconclusive: 10.4 µM [inhibitor, single point]
27 | Cc1ccc2[nH]cc(CCNC(=O)Nc3ccccc3)c2c1 | inconclusive: 2.62 µM [inhibitor, single point]
28 | O=C(NNC(=O)c1ccc(Br)cc1)c1ccncc1 | inactive
29 | Cc1nn(-c2ccccc2)c(C)c1C(=O)N1CCN(S(=O)(=O)c2ccccc2)CC1 | inconclusive: 14.7 µM [inhibitor, single point]
30 | COCCNC(=O)c1cn(C)c(=O)c2cc(OC)c(OC)cc12 | active: 8.28 µM
31 | COc1cc(CNn2c(C)n[nH]c2=S)cc(Cl)c1OCC(=O)NC(C)(C)C | inconclusive: 13.1 µM [inhibitor, single point]
32 | N#Cc1c(C#N)c(O)c2ccccc2c1O | inconclusive: 18.5 µM [inhibitor, single point]
33 | NS(=O)(=O)c1ccc(CCNC(=O)COC(=O)/C=C/c2ccc(Cl)cc2)cc1 | inconclusive: 18.5 µM [inhibitor, single point]
34 | O=C(NCc1cccc(Cl)c1)C1CCC(=O)N(CCCN2CCCC2=O)C1 (stereo unspecified) | inconclusive: 18.5 µM [inhibitor, single point]
35 | CC1CN(c2ccccc2)c2nc3c(c(=O)[nH]c(=O)n3C)n2C1 (stereo unspecified) | inactive
36 | CCC(C)c1ccccc1NC(=O)C(C)OC(=O)c1ccco1 (stereo unspecified) | inactive
37 | CCOc1ccccc1NC(=O)C1CCN(C(=O)C2CC(=O)N(c3ccc(C)cc3)C2)CC1 (stereo unspecified) | inconclusive: 10.4 µM [inhibitor, single point]
38 | CC(=O)C(Cc1ccccc1)NC(=O)CN(C)Cc1ccccc1Cl (stereo unspecified) | inconclusive: 16.5 µM [inhibitor, single point]
39 | O=S(=O)(Cc1ccccc1Cl)NCc1ccccc1 | inconclusive: 18.5 µM [inhibitor, single point]
40 | COc1ccc(C2N(c3ccccc3)CCN2c2ccccc2)cc1O | inactive
41 | Cc1ccc(NC(=O)N2CCN(c3ccccn3)CC2)cc1 | inconclusive: 10.4 µM [inhibitor, single point]
42 | Cc1ccc(S(=O)(=O)n2cc(-c3ccccc3)c3ccccc32)cc1 | inconclusive: 16.5 µM [inhibitor, single point]
43 | CCC(C)NS(=O)(=O)c1ccc(S(=O)(=O)Nc2cc3c(cc2C(C)=O)OCO3)cc1 (stereo unspecified) | active: 9.28 µM
44 | Cc1cc(C(=O)CN2C(=O)C(=O)N(Cc3ccco3)C2=O)c(C)n1CCc1ccc(F)cc1 | inactive
45 | COc1ccc(NC(=O)C(Cc2ccccc2)n2cccc2)c(OC)c1 (stereo unspecified) | inconclusive: 13.1 µM [inhibitor, single point]
46 | CC(=O)c1cccc(NC(=O)c2ccc(OC3CSC3)cc2)c1 | inconclusive: 0.415 µM [inhibitor, full curve, poor fit]
